Results: article PMC3217859
These are yes or no findings as the source states them, for the method shown. Binding seen in cells or lysates may run through a third protein. For part of these data: A result given as binding can be weak or reduced; the word gives no strength. For part of these data: Tags and fused reporters may be left off the sequences shown.

Amino acid sequences for entries named in this document (tags omitted). A change or cut given only in a name is not applied to a line headed by its entry.
UniProt P67775: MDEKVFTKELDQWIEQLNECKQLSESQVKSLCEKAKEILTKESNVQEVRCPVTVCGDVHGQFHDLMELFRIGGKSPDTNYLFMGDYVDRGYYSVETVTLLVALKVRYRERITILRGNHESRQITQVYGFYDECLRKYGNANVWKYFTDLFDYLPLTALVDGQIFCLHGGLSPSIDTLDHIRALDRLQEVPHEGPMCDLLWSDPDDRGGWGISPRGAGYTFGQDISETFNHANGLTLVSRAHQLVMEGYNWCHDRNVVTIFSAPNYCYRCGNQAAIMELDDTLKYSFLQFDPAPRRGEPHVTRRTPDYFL

Columns and labels:
Experiment in all cases: co-IP; anti-HA immunoprecipitates (12CA5 with protein A-Sepharose, or F7 anti-HA-agarose when probing for Mst3 or Mst4; 1.5 h, 4°C) of lysates (1% Nonidet P-40, 0.135 M NaCl, 10% glycerol, 20 mM Tris pH 8.0) of HEK293 cells transfected with HA-striatins; endogenous partners by immunoblot, partner/HA-striatin ratio by chemilumimager against wild type; 50 mM NaF and 100 nM okadaic acid in the lysis buffer in the phosphorylation experiments
46-131 striatin (human) = biological target: T1, 46-131 striatin (human) (UniProt O43815)
T1 sequence: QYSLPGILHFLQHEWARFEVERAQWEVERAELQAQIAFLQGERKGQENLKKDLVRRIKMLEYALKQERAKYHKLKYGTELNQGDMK

[1] = biological target: T2, HA-tagged F457Stop striatin (human) (UniProt O43815)
T2 sequence: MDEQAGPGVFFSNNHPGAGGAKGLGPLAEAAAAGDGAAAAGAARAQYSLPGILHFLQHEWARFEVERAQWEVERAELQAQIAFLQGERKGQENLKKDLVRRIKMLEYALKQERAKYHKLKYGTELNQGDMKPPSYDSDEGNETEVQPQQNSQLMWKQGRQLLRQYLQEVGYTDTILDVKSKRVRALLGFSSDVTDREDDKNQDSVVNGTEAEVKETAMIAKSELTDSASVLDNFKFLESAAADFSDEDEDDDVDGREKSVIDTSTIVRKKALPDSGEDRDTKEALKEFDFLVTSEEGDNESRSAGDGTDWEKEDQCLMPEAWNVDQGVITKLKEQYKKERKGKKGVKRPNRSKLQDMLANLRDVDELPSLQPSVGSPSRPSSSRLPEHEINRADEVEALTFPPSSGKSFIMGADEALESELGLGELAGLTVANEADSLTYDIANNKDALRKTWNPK

[2] = biological target: T3, HA-tagged K270Stop striatin (human) (UniProt O43815)
T3 sequence: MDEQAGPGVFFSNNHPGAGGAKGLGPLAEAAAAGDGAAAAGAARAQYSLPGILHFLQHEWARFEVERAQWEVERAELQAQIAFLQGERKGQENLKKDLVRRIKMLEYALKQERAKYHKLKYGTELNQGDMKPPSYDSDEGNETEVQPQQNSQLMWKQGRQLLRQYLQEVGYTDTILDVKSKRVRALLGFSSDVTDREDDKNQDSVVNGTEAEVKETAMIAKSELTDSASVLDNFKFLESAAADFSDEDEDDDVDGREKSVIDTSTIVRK

[3] = biological target: T4, HA-tagged wild-type striatin (human) (UniProt O43815)
T4 sequence: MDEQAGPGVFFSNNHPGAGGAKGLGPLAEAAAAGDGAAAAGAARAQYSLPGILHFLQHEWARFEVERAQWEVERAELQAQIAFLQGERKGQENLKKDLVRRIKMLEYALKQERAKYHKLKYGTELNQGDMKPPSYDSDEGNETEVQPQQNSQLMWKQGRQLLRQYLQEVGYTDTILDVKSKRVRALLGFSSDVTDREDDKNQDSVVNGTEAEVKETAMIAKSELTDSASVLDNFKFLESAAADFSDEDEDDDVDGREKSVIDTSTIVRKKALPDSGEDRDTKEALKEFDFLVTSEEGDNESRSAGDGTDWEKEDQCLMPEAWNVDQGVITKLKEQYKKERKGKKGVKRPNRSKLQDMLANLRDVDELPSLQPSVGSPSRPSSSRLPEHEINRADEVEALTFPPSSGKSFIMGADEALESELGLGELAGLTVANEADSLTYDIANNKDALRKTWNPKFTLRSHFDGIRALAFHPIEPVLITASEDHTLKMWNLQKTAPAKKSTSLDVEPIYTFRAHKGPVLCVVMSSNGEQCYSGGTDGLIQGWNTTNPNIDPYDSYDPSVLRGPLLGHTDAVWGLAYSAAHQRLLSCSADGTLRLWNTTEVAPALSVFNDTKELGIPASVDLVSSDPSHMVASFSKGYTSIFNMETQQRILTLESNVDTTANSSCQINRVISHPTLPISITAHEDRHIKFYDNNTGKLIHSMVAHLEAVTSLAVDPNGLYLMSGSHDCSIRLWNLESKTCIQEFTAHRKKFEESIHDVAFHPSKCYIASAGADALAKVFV

[4] = biological target: HA-tagged Δ(148-166) striatin (human) (UniProt O43815)
[5] = biological target: T5, HA-tagged Δ(3-309) striatin (human) (UniProt O43815)
T5 sequence: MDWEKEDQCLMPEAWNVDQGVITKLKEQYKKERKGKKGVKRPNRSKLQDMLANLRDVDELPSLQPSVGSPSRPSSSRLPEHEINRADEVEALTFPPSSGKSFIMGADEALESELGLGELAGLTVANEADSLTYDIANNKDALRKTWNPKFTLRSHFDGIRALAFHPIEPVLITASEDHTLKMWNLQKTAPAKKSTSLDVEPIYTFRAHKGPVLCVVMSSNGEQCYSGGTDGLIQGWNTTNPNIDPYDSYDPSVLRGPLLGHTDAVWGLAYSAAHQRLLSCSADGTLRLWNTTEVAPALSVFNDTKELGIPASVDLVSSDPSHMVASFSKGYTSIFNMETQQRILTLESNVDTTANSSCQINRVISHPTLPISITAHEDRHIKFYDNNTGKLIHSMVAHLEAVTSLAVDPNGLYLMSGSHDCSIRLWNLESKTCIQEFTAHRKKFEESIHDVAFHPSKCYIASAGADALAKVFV

[6] = biological target: T6, HA-tagged Δ(70-116) striatin (human) (UniProt O43815)
T6 sequence: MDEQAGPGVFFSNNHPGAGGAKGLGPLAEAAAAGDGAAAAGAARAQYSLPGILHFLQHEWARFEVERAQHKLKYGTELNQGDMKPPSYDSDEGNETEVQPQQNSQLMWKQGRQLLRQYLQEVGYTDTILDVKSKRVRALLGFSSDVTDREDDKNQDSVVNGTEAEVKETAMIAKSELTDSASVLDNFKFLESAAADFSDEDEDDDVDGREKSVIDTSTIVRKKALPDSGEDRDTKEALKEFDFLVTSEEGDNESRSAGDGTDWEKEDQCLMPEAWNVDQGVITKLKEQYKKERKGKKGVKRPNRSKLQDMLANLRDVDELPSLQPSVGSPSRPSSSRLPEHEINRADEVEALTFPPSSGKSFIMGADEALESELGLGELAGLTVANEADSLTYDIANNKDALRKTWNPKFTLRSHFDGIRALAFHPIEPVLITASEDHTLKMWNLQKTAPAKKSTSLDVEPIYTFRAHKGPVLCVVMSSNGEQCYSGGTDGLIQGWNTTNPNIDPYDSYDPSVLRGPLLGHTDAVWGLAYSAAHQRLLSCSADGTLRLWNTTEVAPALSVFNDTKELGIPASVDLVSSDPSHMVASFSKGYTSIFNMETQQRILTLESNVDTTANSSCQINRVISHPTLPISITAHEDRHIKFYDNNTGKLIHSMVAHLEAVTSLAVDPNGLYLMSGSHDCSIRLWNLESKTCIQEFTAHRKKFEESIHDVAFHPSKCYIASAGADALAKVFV

[7] = biological target: T7, P132Stop striatin (human) (UniProt O43815)
T7 sequence: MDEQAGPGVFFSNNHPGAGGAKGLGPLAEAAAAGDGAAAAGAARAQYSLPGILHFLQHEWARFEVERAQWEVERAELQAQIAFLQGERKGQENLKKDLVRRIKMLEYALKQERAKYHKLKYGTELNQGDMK

[8] = biological target: T8, wild-type striatin with an N-terminal double HA epitope tag (modified pLenti6/V5-D-Topo plasmid) (human) (UniProt O43815)
T8 sequence: T4 sequence

- binding (46-131 striatin (human)): binds
- binding [1]: binds
- binding [2]: binds
- binding [3]: binds
- binding [4]: binds
- binding [5]: no binding
- binding [6]: no binding
- binding [7]: binds
- binding [8]: binds
Substance: PP2A C subunit (from UniProt P67775) (enzyme)
